Reference: publication PMC4880191

By UniProt entry, the sequences of proteins in these tests, tags left out. Residues count along the entry.
UniProt P05455, 114-326 K200R/K208R: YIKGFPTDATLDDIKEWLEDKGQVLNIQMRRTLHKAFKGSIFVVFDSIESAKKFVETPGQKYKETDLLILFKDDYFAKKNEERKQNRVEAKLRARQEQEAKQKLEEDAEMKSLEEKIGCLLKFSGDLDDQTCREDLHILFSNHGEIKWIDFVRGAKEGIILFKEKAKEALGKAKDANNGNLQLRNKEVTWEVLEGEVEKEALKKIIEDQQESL

Target: La RRM1+2 K200R/K208R (human) (UniProt P05455)
Assay: EMSA
Settings: SUMO-WT or SUMO-GA reaction, bound only weakly, no enhancement; L37/L22 EMSA: 1x binding buffer (from 2x: 3 mM MgCl2, 300 mM NaCl, 1 mM EDTA, 0.1% Nonidet P-40), i.e. 1.5 mM MgCl2, 150 mM NaCl, 0.5 mM EDTA, 0.05% NP-40; pH not stated; recombinant protein; residues 114-326; protein details: His6 (pET28b); label: 3'-Cy3

| Sequence | binding result |
| --- | --- |
| CUCCUCUGCCGCCAUGGCUCCUGUGAAAAAGCUUGUG [L22 TOP RNA] | binds more weakly |
| UUCCGGUCUCUUUGGCCUCGCCGGUAGAAGCAAGAUG [L37 TOP RNA] | binds more weakly |

A weaker result is weaker than the reference pair of the same experiment.
